Part of at least one peptide drawing is inferred or uncertain, most often the ends. Peptide text beside a SMILES is read from it. * marks the point of attachment. X2 = O=C(/C=C/c1ccccc1)*
Tested on: HFF-1 human fibroblast cell line
Assay: Collagen stimulating activity in HFF-1 dermal fibroblasts (Collagen-1 ELISA)
Type: cell-based
Details: peptide 2 uM, 72 hour; control (buffer) set to 100
Description: Immodulin peptides have potential untility in the field of cosmetics. HFF-1 human fibroblast cell line was obtained from the American Type Culture Collection (ATCC). Cells were grown in a T-75 flask in DMEM Medium containing 10% fetal bovine serum and penicillin-streptomycin at 37° C. in a humidified, 5% CO2 incubator. Cells ([…], 2,000 cells/well) were plated in a 96-well plate and incubated overnight at 37° C. in a humidified, 5% CO2 incubator. Next day, […] of compounds were added (quadruplicate wells). After 72 hour incubation with the compound, supernatants were collected for Collagen-1 ELISA assay and cell viability was measured in a luminometer after the addition of […] CellTiterGlo reagent (Promega Inc, Madison, WI) as recommended by the manufacturer. Collagen stimulating activity of immodulin peptides in HFF-1 dermal fibroblasts: Peptides were added to cells at 2 uM. Collagen-1A1 (COL1) immunoreactivity was measured in the supernatants of cultured cells by ELISA using a rabbit monoclonal anti-COL1 primary antibody (Abcam, Cambridge, MA). Control (buffer) value of immunoreactivity was set to 100.

N=C(N)NCCC[C@H](NC(=O)CNC(=O)[C@H](CCCCN)NC(=O)[C@H](CO)NC(=O)[C@@H]1CCCN1C(=O)[C@H](CCCNC(=N)N)NC(=O)[C@H](CS)NC(=O)[C@H](CCC(N)=O)NC(=O)[C@H](CCCCN)NC(=O)[C@H](CCCCN)NC(=O)[C@H](CCCCN)NC(=O)[C@H](Cc1ccc(O)cc1)NC(=O)[C@H](Cc1ccccc1)NC(=O)CNC(=O)[C@H](CCCCN)NC(=O)[C@H](CCCCN)NC(=O)/C=C/c1ccccc1)C(=O)N[C@@H](CCCCN)C(=O)N[C@@H](CCCNC(=N)N)C(=O)NCC(=O)N[C@@H](Cc1ccccc1)C(=O)N[C@@H](CS)C(=O)N[C@@H](Cc1c[nH]c2ccccc12)C(=O)O [imm3cin] (X2-KKGFYKKKQCRPSKGRKRGFCW-OH)
COL1 (Collagen-1A1 immunoreactivity in supernatant): 106
